{"source": "PubChem BioAssay AID1508597 (Cure First, 2020)", "test": "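Genes whose silencing sensitises or protects ovarian cancer cells against rucaparib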 (primary screen)", "system": "human ovarian carcinoma lines grown from tumours: OCI-P5x (papillary serous) and OCI-C5x (clear cell)", "reagents": "siRNA pool against human genes, 1.25 pmol siRNA per well", "timing": "72 h or 96 h, depending on the cell culture", "challenge": "rucaparib 20 µM (about IC30) or vehicle, present until read-out", "rucaparib or vehicle": "Vehicle", "cell line": "OCI-C5x (clear cell)", "read-out": "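ATP luminescence measured at 72 or 96 h according to the culture, then normalised and expressed as percent viability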", "scale": "viability, normalised: higher = more viable cells remaining", "rule for the call": "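Active when normalised viability falls below 80 percent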", "calls": "active = viability under 80%; inactive = viability 80% or more", "note": "This is an unselected part of the about 2,100 reagents, in one setting of the screen. 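Calls flag viability under 80% in either arm, not effects specific to rucaparib; the reference for percent is not stated.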 Unmarked entries are inactive. A reagent listed more than once was tested more than once; the source does not tell the runs apart. Reagent sequences are not shown. The record does not give: the 100% reference."}
{"target": "HELLS (helicase, lymphoid specific)", "technical replicate": "1", "viability, normalised (%)": "50.6 (active)"}
{"target": "HELLS (helicase, lymphoid specific)", "technical replicate": "2", "viability, normalised (%)": "43.9 (active)"}
{"target": "HELLS (helicase, lymphoid specific)", "technical replicate": "3", "viability, normalised (%)": "54.4 (active)"}
{"target": "WWTR1 (WW domain containing transcription regulator 1)", "technical replicate": "1", "viability, normalised (%)": "41.8 (active)"}
{"target": "WWTR1 (WW domain containing transcription regulator 1)", "technical replicate": "2", "viability, normalised (%)": "55.8 (active)"}
{"target": "WWTR1 (WW domain containing transcription regulator 1)", "technical replicate": "3", "viability, normalised (%)": "59.5 (active)"}
{"target": "MORF4L2 (mortality factor 4 like 2)", "technical replicate": "1", "viability, normalised (%)": "57.1 (active)"}
{"target": "MORF4L2 (mortality factor 4 like 2)", "technical replicate": "2", "viability, normalised (%)": "58.4 (active)"}
{"target": "MORF4L2 (mortality factor 4 like 2)", "technical replicate": "3", "viability, normalised (%)": "78.5 (active)"}
{"target": "TDRKH (tudor and KH domain containing)", "technical replicate": "1", "viability, normalised (%)": "47.4 (active)"}
{"target": "TDRKH (tudor and KH domain containing)", "technical replicate": "2", "viability, normalised (%)": "54.4 (active)"}
{"target": "TDRKH (tudor and KH domain containing)", "technical replicate": "3", "viability, normalised (%)": "43.8 (active)"}
{"target": "SHPRH (SNF2 histone linker PHD RING helicase)", "technical replicate": "1", "viability, normalised (%)": "31.4 (active)"}
{"target": "SHPRH (SNF2 histone linker PHD RING helicase)", "technical replicate": "2", "viability, normalised (%)": "28.3 (active)"}
{"target": "SHPRH (SNF2 histone linker PHD RING helicase)", "technical replicate": "3", "viability, normalised (%)": "36.2 (active)"}
{"target": "PDE1C (phosphodiesterase 1C)", "technical replicate": "1", "viability, normalised (%)": "67.1 (active)"}
{"target": "PDE1C (phosphodiesterase 1C)", "technical replicate": "2", "viability, normalised (%)": "45.2 (active)"}
{"target": "PDE1C (phosphodiesterase 1C)", "technical replicate": "3", "viability, normalised (%)": "45.4 (active)"}
{"target": "REV1 (REV1 DNA directed polymerase)", "technical replicate": "1", "viability, normalised (%)": "45.3 (active)"}
{"target": "REV1 (REV1 DNA directed polymerase)", "technical replicate": "1", "viability, normalised (%)": "45.4 (active)"}
{"target": "REV1 (REV1 DNA directed polymerase)", "technical replicate": "2", "viability, normalised (%)": "64.3 (active)"}
{"target": "REV1 (REV1 DNA directed polymerase)", "technical replicate": "2", "viability, normalised (%)": "50.4 (active)"}
{"target": "REV1 (REV1 DNA directed polymerase)", "technical replicate": "3", "viability, normalised (%)": "51.6 (active)"}
{"target": "REV1 (REV1 DNA directed polymerase)", "technical replicate": "3", "viability, normalised (%)": "51 (active)"}

Looked up above:
Entry for WWTR1 (WW domain containing transcription regulator 1), technical replicate 1 under “viability, normalised (%)”: 41.8 (active)
Under “viability, normalised (%)”, PDE1C (phosphodiesterase 1C), technical replicate 2 reads 45.2 (active)
